Assay results: US20170290820A1, “METHODS AND COMPOSITIONS FOR TREATING BETA-THALASSEMIA AND SICKLE CELL DISEASE” (Academia Sinica, priority 2013, published 2017)
Where a name gives a salt, the structure may show the parent alone. For some assays here: At least one structure is not confirmed: it was looked up by name or label, or the drawing left a doubt. Some entries repeat one wording, which the source may state once for all of them. Some entries share one result that the patent states for a list of compounds. Some ranges recur; such a range may be that of the whole group of compounds.

Key:
γ globin gene = γ globin gene induction by relative quantitative RT-PCR; assay type: cell-based; details: FIG. 3; different dosages, 3 days, primary human erythroid cells
Experimental: After 3 days of drug-treatment, the total RNA was extracted by RNA Spin mini kit (Ge-Healthcare) and reverse-transcription was performed by using superscript II (Invitrogen) followed the manufactors instruction. Quantitative PCR was performed on LightCycler with using STBR green master mix followed the manufactors instruction (Roche). The absolute quantitative RT-PCR was calculated by the standard curve with supplying a known copy number of plasmids. The relative quantitative RT-PCR was normalized to the expression levels of the β-actin and compared to the mock control.
To search for new agents, which are capable of inducing the expression of γ globin, a series of naphthalimide derivatives with various substituent(s) on the naphthalene ring and the heterocyclic N-atom (A1-A14, B1-B4, C1-C5, D1, and E1-E3, FIG. 2) were synthesized. These derivatives were subjected to evaluating the γ globin induction abilities in differentiated peripheral blood mononuclear cells (PBMCs). The PBMCs isolated from the peripheral blood of donors were expanded and differentiated for a total of 14 days in a two-phase liquid culture. […] The expression levels of the endogenous γ globin gene were estimated by relative quantitative RT-PCR and the proliferation rates of these cells were examined by AlamarBlue cell viability assay. […]

topo II = details: previously found, literature; cited from earlier work

In the case of `CN(C)CCN1C(=O)c2cccc3cccc(c23)C1=O` [Compound B1, N-(2-Dimethylamino-ethyl)-1,8-naphthalimide hydrochloride], the “induction of the γ globin gene expression” value (γ globin gene) is listed as 2-4.5 folds and the “inhibition of topo II (DNA intercalator)” value (topo II) is listed as “inhibition of topo II”.
